Reference: PMC7594305
No constants are given. Whether binding was seen depends on the method and setting. In cells and extracts the contact can be indirect. Some entries that bind do so weakly or less than the wild type.

Amino acid sequences for entries named in this document (tags omitted).
UniProt P23242: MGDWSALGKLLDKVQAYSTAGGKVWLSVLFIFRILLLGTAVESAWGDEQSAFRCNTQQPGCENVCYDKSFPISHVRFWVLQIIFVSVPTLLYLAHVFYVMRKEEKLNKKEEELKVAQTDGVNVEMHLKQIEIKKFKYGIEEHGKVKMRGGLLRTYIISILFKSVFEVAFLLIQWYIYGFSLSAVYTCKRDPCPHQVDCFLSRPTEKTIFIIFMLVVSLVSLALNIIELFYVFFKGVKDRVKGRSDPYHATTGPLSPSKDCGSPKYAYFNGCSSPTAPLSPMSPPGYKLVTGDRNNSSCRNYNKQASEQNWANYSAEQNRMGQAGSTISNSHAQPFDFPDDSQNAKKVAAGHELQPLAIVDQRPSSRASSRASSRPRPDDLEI
UniProt P46938: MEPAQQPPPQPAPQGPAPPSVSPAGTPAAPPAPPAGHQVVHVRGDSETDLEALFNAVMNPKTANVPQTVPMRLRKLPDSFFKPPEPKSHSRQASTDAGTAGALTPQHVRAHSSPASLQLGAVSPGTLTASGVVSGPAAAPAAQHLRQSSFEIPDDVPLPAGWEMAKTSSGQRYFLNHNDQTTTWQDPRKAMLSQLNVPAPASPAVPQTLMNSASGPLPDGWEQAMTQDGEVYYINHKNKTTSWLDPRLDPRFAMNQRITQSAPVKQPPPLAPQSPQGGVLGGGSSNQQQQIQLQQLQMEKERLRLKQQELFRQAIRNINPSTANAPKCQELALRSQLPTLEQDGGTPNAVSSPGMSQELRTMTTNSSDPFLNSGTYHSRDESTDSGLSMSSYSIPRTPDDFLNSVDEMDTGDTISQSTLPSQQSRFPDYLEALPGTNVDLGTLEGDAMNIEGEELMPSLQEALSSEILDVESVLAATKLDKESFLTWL

Tests used:
[1] = target: connexin 43 (mouse (endogenous in primary astrocytes)) (UniProt P23242); assay: co-IP; cytoplasmic proteins of hemin-stimulated primary astrocytes; anti-Cx43 or anti-YAP antibody overnight at 4 °C, protein A agarose; Western blot; with or without Gap19 treatment of the cells
[2] = target: connexin 43 (mouse (endogenous in primary astrocytes)) (UniProt P23242); assay: proximity ligation; Duolink in situ PLA on astrocytes on glass slides, anti-YAP and anti-Cx43 primary antibodies; hemin stimulation, Lv-Cx43 overexpression, with or without Gap19 treatment
[3] = target: Cx43 overexpressed by lentiviral vector (Lv-Cx43) (UniProt P23242); assay: as above

Measured: binding

Yes-associated protein (from UniProt P46938 1-488)
binds: all assays above
